Reference: article PMC6484329
These are yes or no findings as the source states them, for the method shown. Binding seen in cells or lysates may run through a third protein. A result given as binding can be weak or reduced; the word gives no strength.

By UniProt entry, the sequences of proteins in these tests, tags left out.
UniProt Q93009: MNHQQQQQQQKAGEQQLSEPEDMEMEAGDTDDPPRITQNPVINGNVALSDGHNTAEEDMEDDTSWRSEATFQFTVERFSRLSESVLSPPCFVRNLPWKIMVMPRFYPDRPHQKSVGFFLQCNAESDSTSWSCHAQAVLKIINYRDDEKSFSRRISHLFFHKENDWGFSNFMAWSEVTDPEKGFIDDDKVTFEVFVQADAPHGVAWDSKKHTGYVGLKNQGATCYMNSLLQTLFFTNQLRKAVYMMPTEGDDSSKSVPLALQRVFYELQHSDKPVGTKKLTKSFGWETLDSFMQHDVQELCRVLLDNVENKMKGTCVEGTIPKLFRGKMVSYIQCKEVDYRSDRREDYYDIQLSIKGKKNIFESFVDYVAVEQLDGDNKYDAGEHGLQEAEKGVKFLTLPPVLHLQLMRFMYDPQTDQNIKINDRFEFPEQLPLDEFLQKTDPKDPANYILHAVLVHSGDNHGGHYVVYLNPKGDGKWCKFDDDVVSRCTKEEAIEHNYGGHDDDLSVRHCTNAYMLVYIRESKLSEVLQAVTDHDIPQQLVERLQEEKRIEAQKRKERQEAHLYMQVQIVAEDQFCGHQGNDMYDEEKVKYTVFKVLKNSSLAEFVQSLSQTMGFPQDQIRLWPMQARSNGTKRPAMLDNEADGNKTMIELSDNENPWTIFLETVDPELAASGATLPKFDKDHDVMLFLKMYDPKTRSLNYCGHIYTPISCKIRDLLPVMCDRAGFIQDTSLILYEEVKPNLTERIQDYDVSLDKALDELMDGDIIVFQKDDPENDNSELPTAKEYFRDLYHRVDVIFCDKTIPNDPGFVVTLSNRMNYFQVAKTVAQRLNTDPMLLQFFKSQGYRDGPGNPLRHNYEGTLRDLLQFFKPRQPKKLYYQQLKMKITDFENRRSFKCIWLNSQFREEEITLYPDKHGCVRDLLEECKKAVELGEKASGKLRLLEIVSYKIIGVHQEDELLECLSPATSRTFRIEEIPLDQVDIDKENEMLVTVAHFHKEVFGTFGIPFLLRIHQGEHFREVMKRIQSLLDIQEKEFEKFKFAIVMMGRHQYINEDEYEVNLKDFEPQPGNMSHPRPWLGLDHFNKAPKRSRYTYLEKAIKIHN

Target: Toxoplasma gondii-derived dense granule protein 16 (TgGRA16), HA-tagged (Toxoplasma gondii) (UniProt Q1JSN3)
Assay: co-IP; HA-Tag Ab on protein A/G-plus agarose beads added to 0.5 mg M-PER extract of GRA16-stable HepG2 or Hep3B cells, 4 h at 4°C; Western blot with HAUSP Ab

In the case of “Ubiquitin-specific peptidase 7 / herpes virus-associated ubiquitin-specific protease (USP7/HAUSP) (from UniProt Q93009 1-1102) (enzyme)”, the binding is reported as “binds”.
